From the supplement of paper PMC6418307
Single values of this set are uncertain.

Tested on: primary mouse cortical neurons
Assay: cell health score (luciferase spike-in reads / total reads per well) (fraction); higher = fewer cellular reads, worse cell health / toxicity
Details: treatment time 24 h
[1] = 0.01 µM, sex of neuron culture: Female
[2] = 0.01 µM, sex of neuron culture: Male
[3] = 0.1 µM, sex of neuron culture: Female
[4] = 0.1 µM, sex of neuron culture: Male
[5] = 1 µM, sex of neuron culture: Female
[6] = 1 µM, sex of neuron culture: Male
[7] = 10 µM, sex of neuron culture: Female
[8] = 10 µM, sex of neuron culture: Male

Structure (SMILES)	cell health score [1]	cell health score [2]	cell health score [3]	cell health score [4]	cell health score [5]	cell health score [6]	cell health score [7]	cell health score [8]
CCc1ccc(C(=O)NN(C(=O)c2cc(C)cc(C)c2)C(C)(C)C)cc1 [Tebufenozide]	0.000497	0.000536	0.00109	0.000863	0.000771	0.000925	0.00165	0.000469
CCc1nn(C)c(C(=O)NCc2ccc(C(C)(C)C)cc2)c1Cl [Tebufenpyrad]	0.00158	0.00433	0.00947	0.00374	0.0106	0.00614	0.00641	0.00435
CCOP(=S)(Oc1cnc(C(C)(C)C)nc1)OC(C)C (stereo unspecified) [Tebupirimfos]	0.000732	0.000627	0.0006	0.000745	0.000928	0.000581	0.00126	0.000523
CNC(=O)N(C)c1nnc(C(C)(C)C)s1 [Tebuthiuron]	0.000542	0.000451	0.0007	0.000544	0.000536	0.00055	0.000731	0.000445
CC/C(=N\OC/C=C/Cl)C1=C(O)CC(C2CCOCC2)CC1=O (stereo unspecified) [Tepraloxydim]	0.000477	0.000834	0.00101	0.000801	0.000613	0.000704	0.000962	0.000425
Cc1[nH]c(=O)n(C(C)(C)C)c(=O)c1Cl [Terbacil]	0.000554	0.000647	0.000844	0.000922	0.000612	0.000615	0.00139	0.000643
FC(F)C(F)(F)OCC(Cn1cncn1)c1ccc(Cl)cc1Cl (stereo unspecified) [Tetraconazole]	0.0006	0.00101	0.00126	0.00117	0.000994	0.00091	0.00111	0.000951
CC(C)=CC1C(C(=O)OCN2C(=O)C3=C(CCCC3)C2=O)C1(C)C (stereo unspecified) [Tetramethrin]	0.000331	0.00128	0.000815	0.000723	0.000656	0.000571	0.000728	0.000695
NC1=N[C@H](O)[C@H]2[C@H]3O[C@]4(O)O[C@@H]([C@@H](O)[C@@]2(N1)[C@@H]4O)[C@]3(O)CO [Tetrodotoxin (TTX)]	0.000462	0.000807	0.000845	0.000911	0.000895	0.000829	0.001	0.000684
c1ccc2[nH]c(-c3cscn3)nc2c1 [Thiabendazole]	0.000687	0.00049	0.00129	0.000898	0.000647	0.000539	0.0016	0.000568
N#C/N=C1\SCCN1Cc1ccc(Cl)nc1 [Thiacloprid]	0.000919	0.000734	0.000574	0.00085	0.00113	0.000591	0.00136	0.000608
CN1COCN(Cc2cnc(Cl)s2)/C1=N\[N+](=O)[O-] [Thiamethoxam]	0.000599	0.000838	0.000574	0.000926	0.000766	0.000867	0.00118	0.00046
COC(=O)c1c(C(F)F)nc(C(F)(F)F)c(C2=NCCS2)c1CC(C)C [Thiazopyr]	0.000624	0.000863	0.00138	0.000827	0.000832	0.000901	0.00129	0.000903
O=C(Nc1ccccc1)Nc1cnns1 [Thidiazuron]	0.000741	0.000609	0.000862	0.000876	0.000899	0.000715	0.000873	0.000583
CCN(CC)C(=O)SCc1ccc(Cl)cc1 [Thiobencarb]	0.000475	0.000636	0.000771	0.000763	0.000818	0.000585	0.00143	0.000537
CS/C(C)=N\OC(=O)N(C)SN(C)C(=O)O/N=C(\C)SC [Thiodicarb]	0.000503	0.00068	0.000752	0.000565	0.00125	0.00049	0.000794	0.00066
COC(=O)NC(=S)Nc1ccccc1NC(=S)NC(=O)OC [Thiophanate-methyl]	0.000389	0.000611	0.000891	0.000747	0.000949	0.000658	0.00111	0.000486
CN(C)C(=S)SSC(=S)N(C)C [Thiram]	0.000569	0.000873	0.000926	0.000681	0.000714	0.000824	0.000831	0.000479
CC[C@@]1(O)C(=O)OCc2c1cc1n(c2=O)Cc2cc3c(CN(C)C)c(O)ccc3nc2-1 [Topotecan]	0.000471	0.000872	0.002	0.0012	0.00106	0.00106	0.000913	0.00725
CCO/N=C(\CC)C1=C(O)CC(c2c(C)cc(C)cc2C)CC1=O (stereo unspecified) [Tralkoxydim]	0.000544	0.0007	0.00167	0.000884	0.000835	0.00067	0.0014	0.000913
CC(C)N(C(=O)SCC(Cl)=C(Cl)Cl)C(C)C [Tri-allate]	0.000439	0.0013	0.000732	0.000552	0.000707	0.000732	0.000455	0.00078
CC(C)(C)C(=O)C(Oc1ccc(Cl)cc1)n1cncn1 (stereo unspecified) [Triadimefon]	0.000654	0.000578	0.000718	0.00103	0.000784	0.000477	0.000926	0.000494
CC(C)(C)C(O)C(Oc1ccc(Cl)cc1)n1cncn1 (stereo unspecified) [Triadimenol]	0.000531	0.000853	0.000722	0.000955	0.00088	0.000816	0.000944	0.000447
CCCCSP(=O)(SCCCC)SCCCC [Tribufos]	0.000664	0.000999	0.000898	0.00095	0.000964	0.000594	0.000918	0.000562
COP(=O)(OC)C(O)C(Cl)(Cl)Cl (stereo unspecified) [Trichlorfon]	0.000491	0.000697	0.000826	0.00095	0.000978	0.000773	0.00138	0.000674
O=C(O)COc1nc(Cl)c(Cl)cc1Cl [Triclopyr]	0.000573	0.00093	0.0015	0.000894	0.000715	0.000765	0.00105	0.000444
Oc1cc(Cl)ccc1Oc1ccc(Cl)cc1Cl [Triclosan]	0.000559	0.000742	0.000859	0.00107	0.0008	0.000556	0.00144	0.000498

Single records, from the list above.
COC(=O)c1c(C(F)F)nc(C(F)(F)F)c(C2=NCCS2)c1CC(C)C [Thiazopyr] reads cell health score [1]: 0.000624; cell health score [2]: 0.000863; cell health score [3]: 0.00138; cell health score [4]: 0.000827; cell health score [5]: 0.000832; cell health score [6]: 0.000901; cell health score [7]: 0.00129; cell health score [8]: 0.000903
CN1COCN(Cc2cnc(Cl)s2)/C1=N\[N+](=O)[O-] [Thiamethoxam] reads cell health score [1]: 0.000599; cell health score [2]: 0.000838; cell health score [3]: 0.000574; cell health score [4]: 0.000926; cell health score [5]: 0.000766; cell health score [6]: 0.000867; cell health score [7]: 0.00118; cell health score [8]: 0.00046
